Holding throughout (assay): co-IP; tagged proteins overexpressed together (HEK 293 cells named for Fig. 3C, G, H; cells not named for Fig. 3E, F); lysis buffer 50 mM Tris-HCl pH 7.4, 100 mM NaCl, 0.5% Igepal CA630, 5 mM MgCl2; primary antibody overnight at 4°C, protein A/G beads
The target of experiment [1] is T1, Flag-tagged apoA-I (made in HEK 293 cells) (UniProt Q00623).
T1 sequence: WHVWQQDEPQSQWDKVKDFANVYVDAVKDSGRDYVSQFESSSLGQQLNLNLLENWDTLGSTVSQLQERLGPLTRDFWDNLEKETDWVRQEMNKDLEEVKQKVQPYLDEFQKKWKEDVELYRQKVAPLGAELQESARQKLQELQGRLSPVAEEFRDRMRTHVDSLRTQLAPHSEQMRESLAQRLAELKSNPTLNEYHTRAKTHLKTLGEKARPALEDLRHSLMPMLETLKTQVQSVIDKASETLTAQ

By UniProt entry, the sequences of proteins in these tests, tags left out.
UniProt Q6PD10: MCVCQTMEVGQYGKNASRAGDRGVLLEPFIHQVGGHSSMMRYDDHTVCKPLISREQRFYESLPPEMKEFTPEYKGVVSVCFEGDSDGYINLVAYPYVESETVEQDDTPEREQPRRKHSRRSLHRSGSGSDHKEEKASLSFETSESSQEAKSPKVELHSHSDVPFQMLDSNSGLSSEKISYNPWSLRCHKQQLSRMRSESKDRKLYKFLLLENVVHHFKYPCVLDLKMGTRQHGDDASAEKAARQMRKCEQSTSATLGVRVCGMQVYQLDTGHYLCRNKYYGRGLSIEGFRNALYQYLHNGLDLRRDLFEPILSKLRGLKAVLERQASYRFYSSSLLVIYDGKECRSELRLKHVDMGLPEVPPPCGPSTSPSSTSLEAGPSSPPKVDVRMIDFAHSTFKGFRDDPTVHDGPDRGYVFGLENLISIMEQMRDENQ

In the next experiment the target is Myc-tagged WT IP6K1 (UniProt Q6PD10).
The target in experiment [2] is T1, Flag-tagged apoA-I (made in HEK 293 cells). The source holds these as a separate data set.
The target of the next experiment is T2, HA-tagged UBE4A (UniProt E9Q735).
T2 sequence: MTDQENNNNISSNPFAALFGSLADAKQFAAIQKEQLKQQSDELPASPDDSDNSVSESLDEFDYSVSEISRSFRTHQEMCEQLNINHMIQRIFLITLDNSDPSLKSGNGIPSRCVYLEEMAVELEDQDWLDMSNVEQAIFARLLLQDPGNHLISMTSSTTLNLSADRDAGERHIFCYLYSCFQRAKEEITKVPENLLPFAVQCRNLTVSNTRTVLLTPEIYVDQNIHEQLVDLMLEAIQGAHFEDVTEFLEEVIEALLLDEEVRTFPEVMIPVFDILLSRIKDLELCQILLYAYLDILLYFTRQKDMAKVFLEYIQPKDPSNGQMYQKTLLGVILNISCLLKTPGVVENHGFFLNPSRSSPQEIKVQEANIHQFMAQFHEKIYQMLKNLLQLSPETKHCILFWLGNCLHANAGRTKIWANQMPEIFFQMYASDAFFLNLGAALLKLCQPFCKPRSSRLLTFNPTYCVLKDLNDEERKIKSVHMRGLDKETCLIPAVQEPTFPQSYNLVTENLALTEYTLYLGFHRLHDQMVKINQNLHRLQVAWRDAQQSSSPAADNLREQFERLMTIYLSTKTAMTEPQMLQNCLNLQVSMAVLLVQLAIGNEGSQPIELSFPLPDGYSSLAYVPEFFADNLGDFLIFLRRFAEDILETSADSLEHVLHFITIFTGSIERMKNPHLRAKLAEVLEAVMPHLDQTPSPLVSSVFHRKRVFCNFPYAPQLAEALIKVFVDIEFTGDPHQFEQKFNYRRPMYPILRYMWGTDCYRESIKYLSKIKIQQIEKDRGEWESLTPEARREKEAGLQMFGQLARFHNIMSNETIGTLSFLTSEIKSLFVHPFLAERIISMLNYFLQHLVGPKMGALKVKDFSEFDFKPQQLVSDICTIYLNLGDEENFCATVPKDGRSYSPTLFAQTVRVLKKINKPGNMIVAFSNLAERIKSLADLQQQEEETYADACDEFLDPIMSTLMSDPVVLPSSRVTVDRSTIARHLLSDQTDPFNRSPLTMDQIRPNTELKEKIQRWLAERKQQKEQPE

Where two headings read alike, the source gives them in different places. Results are given in words; binding and its absence hold for the method and conditions named. Binding seen in cells or lysates may run through a third protein. Some results given as binding are weak or reduced against the parent protein; the word gives no strength. Tags and fused reporters may be left off the sequences shown.

In the case of “Myc-tagged WT IP6K1 (from UniProt Q6PD10 1-433) (enzyme)”, in experiment [1], the binding entry is given as “binds”.

B1: HA-tagged UBE4A (enzyme, UniProt E9Q735 1-1028)
chain: T2 sequence
B1: the binding entry (with Myc-tagged WT IP6K1; in experiment [2]) was “binds” in each case.

B2: Flag-tagged apoA-I (made in HEK 293 cells) (protein, UniProt Q00623 19-264)
chain: T1 sequence
With B2, the binding entry with Myc-tagged WT IP6K1 and with HA-tagged UBE4A was “binds” throughout.
